Source: US7282347B2, “Method for extracting quantitative information relating to interactions between cellular components” (Fisher Bioimage APS, priority 2000, dated 2007)
These are yes or no findings as the source states them, for the method shown. Some entries that bind do so weakly or less than the wild type.

Assays:
[1] = target: anchor probe HSPDE4A4-SosA (human); assay: redistribution trap in co-transfected CHO cells, 10 uM rolipram 20 hours; confocal imaging
[2] = target: anchor probe HSPDE4A4-SosA (human); assay: redistribution trap in co-transfected CHO cells: rolipram-induced GFP-bright spots, dispersed by RP73401; confocal imaging
[3] = target: anchor probe HSPDE4A4-SosA (human); assay: redistribution trap in co-transfected CHO cells: rolipram-induced spots dissolved by 10 uM RP73401; imaging
[4] = target: in frame protein fusion between PDE4A4 and human 14-3-3beta (human) (UniProt P31946); assay: redistribution trap in co-transfected CHO cells, rolipram, with and without extraction; imaging
[5] = target: in frame protein fusion between PDE4A4 and human 14-3-3beta (human) (UniProt P31946); assay: redistribution trap in co-transfected CHO cells, 10 uM rolipram, extraction buffer, fluorescence plate reader

| binding [1] | binding [2] | binding [3] | binding [4] | binding [5] | Substance |
| --- | --- | --- | --- | --- | --- |
| binds | binds | binds |  |  | detectable probe hGrb2-EGFP (from UniProt P62993 1-217; P42212 1-238) |
|  |  |  | binds | binds | in frame protein fusion between EGFP and human BAD (from UniProt P42212 1-238; Q92934 1-168) |
